Results as given in patent publication US20100138941A1.
These are yes or no findings as the source states them, for the method shown. In cells and extracts the contact can be indirect. A yes stands for co-enrichment or nearness to the bait. Other partners may have been found.

Sequences of proteins named here, by UniProt entry; tags and fusion partners are left off. Residues count along the entry.
UniProt P08113, residues 22-802: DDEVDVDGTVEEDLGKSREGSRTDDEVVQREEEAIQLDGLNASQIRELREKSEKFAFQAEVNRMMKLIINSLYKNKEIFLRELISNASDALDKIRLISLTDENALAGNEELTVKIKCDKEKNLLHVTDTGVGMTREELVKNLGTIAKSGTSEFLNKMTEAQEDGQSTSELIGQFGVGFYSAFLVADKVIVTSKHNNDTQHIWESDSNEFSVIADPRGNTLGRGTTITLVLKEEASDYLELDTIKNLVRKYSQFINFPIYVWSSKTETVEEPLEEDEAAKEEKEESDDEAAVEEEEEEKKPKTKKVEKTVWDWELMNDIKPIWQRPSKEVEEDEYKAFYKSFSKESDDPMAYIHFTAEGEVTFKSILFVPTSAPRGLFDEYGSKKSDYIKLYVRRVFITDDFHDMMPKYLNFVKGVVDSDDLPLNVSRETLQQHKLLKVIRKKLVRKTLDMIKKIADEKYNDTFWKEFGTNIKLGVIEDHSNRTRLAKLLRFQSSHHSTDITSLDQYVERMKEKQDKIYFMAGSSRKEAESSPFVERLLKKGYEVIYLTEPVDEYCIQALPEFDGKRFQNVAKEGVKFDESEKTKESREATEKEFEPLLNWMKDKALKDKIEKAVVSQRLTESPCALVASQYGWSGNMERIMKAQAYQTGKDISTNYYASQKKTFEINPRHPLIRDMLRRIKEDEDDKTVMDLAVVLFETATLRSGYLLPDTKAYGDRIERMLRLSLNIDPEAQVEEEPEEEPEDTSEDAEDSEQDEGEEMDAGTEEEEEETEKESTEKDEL

Tests used:
[1] = target: gp96 from mouse pancreas protein extract (mouse) (UniProt P08113); experiment: affinity purification from mouse pancreas extract on biotin-AIMP1 streptavidin beads, mass spectrometry
[2] = target: gp96 from mouse pancreas protein extract (mouse) (UniProt P08113); experiment: affinity purification from mouse pancreas extract on biotin-AIMP1 streptavidin beads, SDS-PAGE silver staining, mass spectrometry

binding [1]: binds
binding [2]: binds
B1: biotin-conjugated recombinant AIMP1 protein (protein)
chain: MANNDAVLKRLEQKGAEADQIIEYLKQQVSLLKEKAILQATLREEKKLRVENAKLKKEIEELKQELIQAEIQNGVKQIAFPSGTPLHANSMVSENVIQSTAVTTVSSGTKEQIKGGTGDEKKAKEKIEKKGEKKEKKQQSIAGSADSKPIDVSRLDLRIGCIITARKHPDADSLYVEEVDVGEIAPRTVVSGLVNHVPLEQMQNRMVILLCNLKPAKMRGVLSQAMVMCASSPEKIEILAPPNGSVPGDRITFDAFPGEPDKELNPKKKIWEQIQPDLHTNDECVATYKGVPFEVKGKGVCRAQTMSNSGIK
modifications: conjugated to biotin with sulfo-biotin reagent (sites not given)
